This note sets out measurements from PMC8466238, “Development of High Affinity Calcitonin Analog Fragments Targeting Extracellular Domains of Calcitonin Family Receptors” (Biomolecules, 2021).

These are yes or no findings as the source states them, for the method shown. Some binding calls cover weakened binding; strength is not graded here. Where a sequence is shown, tags or fusion partners need not be part of it.

This assay has as its target T1, FITC-labeled AC413(6–25).
T1 sequence (peptide, FITC-(Ahx) (aminohexanoic acid) on the N-terminus; C-terminal amide): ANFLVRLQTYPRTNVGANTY
Briefly: fluorescence polarisation; binding of AC413 to purified RAMP3-CTR ECD fusion protein compared to CTR ECD alone (Figure S1D; details not shown); both purified. A general note: Fluorescence polarisation rises when a labelled molecule tumbles more slowly, as on binding a larger partner.

B1: RAMP3-CTR ECD fusion protein (hRAMP3.25–112-(GSA)3-hCTR.34–141-H6) (receptor, human)
chain: AGGCNETGMLERLPLCGKAFADMMGKVDVWKWCNLSEFIVYYESFTNCTEMEANVVGCYWPNPLAQGFITGIHRQFFSNCTVDRVHLEGSAGSAGSAIEPKPFLYVVGRKKMMDAQYKCYDRMQQLPAYQGEGPYCNRTWDGWLCWDDTPAGVLSYQFCPDYFPDFDPSEKVTKYCDEKGVWFKHPENNRTWSNYTMCNAFTPEK
notes: human receptor activity-modifying protein 3 (RAMP3), extracellular domain, residues 25-112; linker, printed as (GSA)3; human calcitonin receptor (CTR), extracellular domain, residues 34-141; Secreted from a pHLsec-based vector; also called AMY receptor 3 ECD; RAMP3 ECD-CTR ECD fusion protein; source: HEK293S GnTI-, transiently transfected (PEI), secreted to cell culture media, purified (IMAC, SEC)
Turning to B1, the binding result is “binds”.
